Structures can show the parent of a compound that is named as a salt. Some of these results come from one statement about several compounds together.
Tested on: rats
Test: Catalepsy in rats, “piano” test, oral administration
Format: in vivo, rat
Conditions: 24 hours follow-up (FIGS. 10a, 10b)
Experimental: To this end, the induced catalepsy, the prolactin blood levels and the animal behavior were measured as described hereinabove, following oral administration of either AN 168 or perphenazine alone to rats. Animals, divided 5 per cage, were treated by oral administration of perphenazine or AN-168 dissolved in 1% lactic acid. Control animals received vehicle (lactic acid) only.
The catalepsy induced by oral administration of various concentrations of AN 168 and perphenazine was measured by the “wall” test and the “piano” test described hereinabove. The time course of catalepsy was measured 4-24 hours following oral administration of 2.5, 5, 10 and 20 mg/kg perphenazine and respective equimolar doses of 3.5, 7, 14 and 28 mg/kg AN-168. The total catalepsy represents the sum of average catalepsy per treated group during the 4-24 hours of follow-up.

## NCCCC(=O)OCCN1CCN(CCCN2c3ccccc3Sc3ccc(Cl)cc32)CC1 [AN-168, Perphenazine 4-aminobutyrate Trihydrochloride]
  time at which maximal cataleptic effect was achieved following treatment: 5 to 6 h

## OCCN1CCN(CCCN2c3ccccc3Sc3ccc(Cl)cc32)CC1 [Perphenazine, perphenazine, reference compound]
  time at which maximal cataleptic effect was achieved following treatment: 5 to 6 h

Reference: patent US8168628B2, “Conjugated psychotropic drugs and uses thereof” (Ramot at Tel-Aviv University Ltd., priority 2001, dated 2012)
